Assay results from PMC9647545.
Results are given in words; binding and its absence hold for the method and conditions named. Binding seen in cells or lysates may run through a third protein.

Chains of the proteins cited; added tags and fusions are not shown. Lines headed by an entry give the natural chain unless they say otherwise; changes in a name come on top.
UniProt P20489: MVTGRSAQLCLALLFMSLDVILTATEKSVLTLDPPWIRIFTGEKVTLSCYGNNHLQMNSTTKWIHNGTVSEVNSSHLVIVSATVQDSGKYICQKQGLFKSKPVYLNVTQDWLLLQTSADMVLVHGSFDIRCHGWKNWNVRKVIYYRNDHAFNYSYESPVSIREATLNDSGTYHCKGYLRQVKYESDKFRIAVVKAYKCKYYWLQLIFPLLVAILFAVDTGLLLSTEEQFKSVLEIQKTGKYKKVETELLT
UniProt P20490: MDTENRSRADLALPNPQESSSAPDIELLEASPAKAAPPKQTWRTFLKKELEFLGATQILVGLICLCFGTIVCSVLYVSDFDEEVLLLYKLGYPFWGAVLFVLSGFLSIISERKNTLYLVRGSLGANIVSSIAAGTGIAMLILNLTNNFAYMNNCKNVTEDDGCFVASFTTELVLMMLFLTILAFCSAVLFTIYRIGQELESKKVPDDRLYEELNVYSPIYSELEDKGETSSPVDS
UniProt P20491: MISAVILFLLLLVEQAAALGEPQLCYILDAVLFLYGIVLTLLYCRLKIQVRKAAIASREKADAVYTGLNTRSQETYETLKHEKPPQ

Molecular target: FcεRI (mouse (endogenous in BMMCs)) (UniProt P20489+P20490+P20491)
Assay: co-IP; co-immunoprecipitation experiments of IRAP and FcεRI told only in the discussion; no data shown, no details

binding: no binding
B1: Insulin-regulated aminopeptidase (protein, UniProt Q8C129 1-1025)
chain: MESFTNDRLQLPRNMIENSMFEEEPDVVDLAKEPCLHPLEPDEVEYEPRGSRLLVRGLGEHEMDEDEEDYESSAKLLGMSFMNRSSGLRNSAAGYRQSPDGTCSLPSARTLVICVFVIVVAVSVIMVIYLLPRCTFTKEGCHKTNQSAELIQPVATNGKVFPWAQIRLPTAIIPLCYELSLHPNLTSMTFRGSVTISLQALQDTRDIILHSTGHNISRVTFMSAVSSQEKQVEILEYPYHEQIAVVAPEPLLTGHNYTLKIEYSANISNSYYGFYGITYTDKSNEKKYFAATQFEPLAARSAFPCFDEPAFKATFIIKITRNEHHTALSNMPKKSSVPAEEGLIQDEFSESVKMSTYLVAFIVGEMRNLSQDVNGTLVSVYAVPEKIGQVHHALDTTIKLLEFYQTYFEIQYPLKKLDLVAIPDFEAGAMENWGLLTFREETLLYDNATSSVADRKLVTKIIAHELAHQWFGNLVTMQWWNDLWLNEGFATFMEYFSVEKIFKELNSYEDFLDARFKTMRKDSLNSSHPISSSVQSSEQIEEMFDSLSYFKGASLLLMLKSYLSEDVFRHAVILYLHNHSYAAIQSDDLWDSFNEVTDKTLDVKKMMKTWTLQKGFPLVTVQRKGTELLLQQERFFLRMQPESQPSDTSHLWHIPISYVTDGRNYSEYRSVSLLDKKSDVINLTEQVQWVKVNSNMTGYYIVHYAHDDWTALINQLKRNPYVLSDKDRANLINNIFELAGLGKVPLRMAFDLIDYLKNETHTAPITEALFQTNLIYNLLEKLGHMDLSSRLVARVHKLLQNQIQQQTWTDEGTPSMRELRSALLEFACAHSLENCTTMATNLFDSWMASNGTQSLPTDVMVTVFKVGARTEKGWLFLFSMYSSMGSEAEKNKILEALASSEDVHKLYWLMKSSLDGDIIRTQKLSLIIRTVGRHFPGHLLAWDFVKENWNKLVHKFHLGSYTIQSIVAGSTHLFSTKTHLSEVQAFFENQSEATLKLRCVQEALEVIQLNIQWMVRNLKTLSQWL
